According to the supplement of paper PMC10849652:
This is one part of the list.

The chains behind the UniProt entries cited, without tags or fusion partners. Where a name states a change or a piece, a line headed by the entry shows the natural chain unless it says otherwise.
UniProt Q9Y5L4: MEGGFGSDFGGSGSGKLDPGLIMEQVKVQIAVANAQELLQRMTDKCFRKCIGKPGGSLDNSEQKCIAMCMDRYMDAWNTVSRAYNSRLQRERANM
UniProt Q6YHU6: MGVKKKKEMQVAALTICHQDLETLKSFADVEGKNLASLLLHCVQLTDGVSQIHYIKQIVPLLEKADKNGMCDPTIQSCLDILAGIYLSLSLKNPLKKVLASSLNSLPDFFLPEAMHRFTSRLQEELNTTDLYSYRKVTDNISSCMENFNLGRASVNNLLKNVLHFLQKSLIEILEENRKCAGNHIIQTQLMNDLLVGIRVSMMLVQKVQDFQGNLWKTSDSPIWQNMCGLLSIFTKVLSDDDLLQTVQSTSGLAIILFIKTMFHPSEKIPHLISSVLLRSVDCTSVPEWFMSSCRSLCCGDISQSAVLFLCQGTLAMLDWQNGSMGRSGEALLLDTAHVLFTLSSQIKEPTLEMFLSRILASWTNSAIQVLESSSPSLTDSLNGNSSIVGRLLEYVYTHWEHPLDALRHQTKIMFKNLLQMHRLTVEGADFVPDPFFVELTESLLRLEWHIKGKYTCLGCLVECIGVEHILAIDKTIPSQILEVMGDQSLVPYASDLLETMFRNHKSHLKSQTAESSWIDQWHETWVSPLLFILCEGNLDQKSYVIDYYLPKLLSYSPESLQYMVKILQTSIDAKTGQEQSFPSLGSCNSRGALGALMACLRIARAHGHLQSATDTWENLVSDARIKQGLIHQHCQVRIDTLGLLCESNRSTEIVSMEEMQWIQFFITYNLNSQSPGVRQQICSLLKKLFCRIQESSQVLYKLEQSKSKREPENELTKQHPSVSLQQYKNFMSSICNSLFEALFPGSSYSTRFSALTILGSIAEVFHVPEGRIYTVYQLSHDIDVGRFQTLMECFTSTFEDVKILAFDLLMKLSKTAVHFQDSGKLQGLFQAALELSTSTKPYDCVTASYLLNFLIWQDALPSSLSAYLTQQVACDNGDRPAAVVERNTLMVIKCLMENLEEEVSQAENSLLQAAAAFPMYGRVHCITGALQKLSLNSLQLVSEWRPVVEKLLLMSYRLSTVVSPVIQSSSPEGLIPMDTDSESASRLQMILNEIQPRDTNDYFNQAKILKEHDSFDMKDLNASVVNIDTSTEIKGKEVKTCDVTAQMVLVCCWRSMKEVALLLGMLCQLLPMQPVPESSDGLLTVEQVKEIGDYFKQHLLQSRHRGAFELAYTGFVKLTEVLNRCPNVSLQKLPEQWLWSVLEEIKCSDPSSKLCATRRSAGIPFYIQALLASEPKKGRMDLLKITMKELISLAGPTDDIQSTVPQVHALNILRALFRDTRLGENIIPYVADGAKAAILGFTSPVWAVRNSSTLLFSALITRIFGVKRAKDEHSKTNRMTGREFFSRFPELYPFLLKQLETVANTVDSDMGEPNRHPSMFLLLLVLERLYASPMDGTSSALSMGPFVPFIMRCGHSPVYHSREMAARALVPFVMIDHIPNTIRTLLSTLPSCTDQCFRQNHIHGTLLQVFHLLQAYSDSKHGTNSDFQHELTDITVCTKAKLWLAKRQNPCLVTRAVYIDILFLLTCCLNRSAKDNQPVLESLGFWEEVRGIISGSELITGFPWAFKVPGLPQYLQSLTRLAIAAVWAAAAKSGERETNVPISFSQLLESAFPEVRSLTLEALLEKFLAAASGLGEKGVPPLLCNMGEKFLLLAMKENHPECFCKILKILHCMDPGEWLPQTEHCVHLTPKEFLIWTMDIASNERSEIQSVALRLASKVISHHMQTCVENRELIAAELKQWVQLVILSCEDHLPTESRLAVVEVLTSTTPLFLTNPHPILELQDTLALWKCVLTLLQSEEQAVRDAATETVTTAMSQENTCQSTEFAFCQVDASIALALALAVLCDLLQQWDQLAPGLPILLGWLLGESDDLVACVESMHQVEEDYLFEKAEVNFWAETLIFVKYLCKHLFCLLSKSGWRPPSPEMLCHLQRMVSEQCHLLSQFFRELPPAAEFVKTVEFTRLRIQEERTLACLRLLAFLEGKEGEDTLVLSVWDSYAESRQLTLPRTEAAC
UniProt Q9HA65: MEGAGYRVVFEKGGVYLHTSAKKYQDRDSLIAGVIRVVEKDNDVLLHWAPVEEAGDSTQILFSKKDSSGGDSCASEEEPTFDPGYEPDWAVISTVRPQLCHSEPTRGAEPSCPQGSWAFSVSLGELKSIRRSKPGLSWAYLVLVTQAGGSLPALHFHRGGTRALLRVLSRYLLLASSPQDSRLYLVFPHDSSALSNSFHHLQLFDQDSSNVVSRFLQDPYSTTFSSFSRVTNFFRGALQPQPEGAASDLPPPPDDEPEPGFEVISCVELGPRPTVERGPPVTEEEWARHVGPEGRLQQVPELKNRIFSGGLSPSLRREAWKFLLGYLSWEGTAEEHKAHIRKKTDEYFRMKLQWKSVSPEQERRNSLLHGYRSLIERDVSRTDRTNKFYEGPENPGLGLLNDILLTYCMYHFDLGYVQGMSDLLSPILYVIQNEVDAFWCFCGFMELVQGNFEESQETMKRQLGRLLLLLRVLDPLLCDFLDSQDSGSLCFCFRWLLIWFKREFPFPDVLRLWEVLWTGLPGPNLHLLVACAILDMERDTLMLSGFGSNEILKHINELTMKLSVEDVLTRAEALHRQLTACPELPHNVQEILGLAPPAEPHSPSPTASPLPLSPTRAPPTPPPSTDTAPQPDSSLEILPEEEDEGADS
UniProt Q9NU19: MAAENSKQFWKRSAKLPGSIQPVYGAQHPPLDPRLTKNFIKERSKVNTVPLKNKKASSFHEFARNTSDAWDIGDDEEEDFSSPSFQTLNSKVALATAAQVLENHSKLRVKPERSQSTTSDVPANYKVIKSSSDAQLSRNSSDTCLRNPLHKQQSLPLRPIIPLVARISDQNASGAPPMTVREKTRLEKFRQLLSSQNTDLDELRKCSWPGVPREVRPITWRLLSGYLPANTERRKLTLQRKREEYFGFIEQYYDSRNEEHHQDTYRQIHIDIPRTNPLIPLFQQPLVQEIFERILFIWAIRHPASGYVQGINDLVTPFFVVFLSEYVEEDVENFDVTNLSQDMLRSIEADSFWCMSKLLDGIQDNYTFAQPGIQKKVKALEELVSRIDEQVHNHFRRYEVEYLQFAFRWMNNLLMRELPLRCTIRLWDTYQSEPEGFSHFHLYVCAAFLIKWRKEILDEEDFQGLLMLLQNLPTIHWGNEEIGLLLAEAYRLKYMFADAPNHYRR
UniProt O60830: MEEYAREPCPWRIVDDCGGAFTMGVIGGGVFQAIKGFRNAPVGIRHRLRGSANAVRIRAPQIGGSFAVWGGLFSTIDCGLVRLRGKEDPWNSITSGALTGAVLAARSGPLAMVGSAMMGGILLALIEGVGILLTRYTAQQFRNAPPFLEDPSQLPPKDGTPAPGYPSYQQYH
UniProt Q86XR7, whole entry, looked up: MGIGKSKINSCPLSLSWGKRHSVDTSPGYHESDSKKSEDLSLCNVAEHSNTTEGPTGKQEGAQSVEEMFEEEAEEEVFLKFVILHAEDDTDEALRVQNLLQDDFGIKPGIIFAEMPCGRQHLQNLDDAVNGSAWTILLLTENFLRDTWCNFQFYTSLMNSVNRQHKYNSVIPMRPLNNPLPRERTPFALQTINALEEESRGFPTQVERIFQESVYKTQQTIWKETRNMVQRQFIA
UniProt Q5VWP2: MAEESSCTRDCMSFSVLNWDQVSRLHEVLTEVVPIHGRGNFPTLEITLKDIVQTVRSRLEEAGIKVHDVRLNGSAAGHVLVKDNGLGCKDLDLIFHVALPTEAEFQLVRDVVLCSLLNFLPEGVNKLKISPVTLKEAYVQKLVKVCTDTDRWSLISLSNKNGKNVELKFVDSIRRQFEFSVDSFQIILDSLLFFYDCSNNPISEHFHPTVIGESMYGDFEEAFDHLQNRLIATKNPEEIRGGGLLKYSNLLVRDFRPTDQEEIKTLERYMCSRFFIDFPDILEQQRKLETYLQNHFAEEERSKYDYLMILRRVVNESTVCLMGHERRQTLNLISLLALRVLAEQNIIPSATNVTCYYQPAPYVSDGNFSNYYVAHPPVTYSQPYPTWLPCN
UniProt Q96J01: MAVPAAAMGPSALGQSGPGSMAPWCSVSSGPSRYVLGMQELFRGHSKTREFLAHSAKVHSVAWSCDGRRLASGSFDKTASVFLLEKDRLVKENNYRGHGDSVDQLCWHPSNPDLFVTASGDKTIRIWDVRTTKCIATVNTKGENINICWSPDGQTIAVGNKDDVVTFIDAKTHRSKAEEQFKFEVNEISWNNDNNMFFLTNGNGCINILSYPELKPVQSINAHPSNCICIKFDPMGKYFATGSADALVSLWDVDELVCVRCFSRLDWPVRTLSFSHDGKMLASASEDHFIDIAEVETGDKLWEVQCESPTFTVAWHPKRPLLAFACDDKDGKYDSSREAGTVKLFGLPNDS
UniProt P15923: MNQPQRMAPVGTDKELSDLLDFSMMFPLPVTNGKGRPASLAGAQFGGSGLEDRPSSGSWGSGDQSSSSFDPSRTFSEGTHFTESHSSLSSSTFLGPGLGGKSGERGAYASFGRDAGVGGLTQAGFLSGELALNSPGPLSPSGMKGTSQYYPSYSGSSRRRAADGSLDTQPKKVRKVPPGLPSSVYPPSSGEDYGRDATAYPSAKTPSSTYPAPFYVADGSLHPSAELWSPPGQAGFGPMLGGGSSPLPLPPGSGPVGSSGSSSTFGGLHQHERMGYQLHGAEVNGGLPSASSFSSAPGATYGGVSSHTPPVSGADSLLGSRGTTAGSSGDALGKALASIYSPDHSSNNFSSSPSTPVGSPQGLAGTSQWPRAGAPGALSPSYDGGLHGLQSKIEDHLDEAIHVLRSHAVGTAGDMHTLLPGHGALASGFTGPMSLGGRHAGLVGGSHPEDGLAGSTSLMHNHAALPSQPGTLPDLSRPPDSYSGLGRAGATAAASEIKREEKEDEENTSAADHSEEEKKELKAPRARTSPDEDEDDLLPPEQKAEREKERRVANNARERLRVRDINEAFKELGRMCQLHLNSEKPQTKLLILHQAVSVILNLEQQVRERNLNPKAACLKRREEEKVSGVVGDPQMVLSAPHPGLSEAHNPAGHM
UniProt Q9Y584: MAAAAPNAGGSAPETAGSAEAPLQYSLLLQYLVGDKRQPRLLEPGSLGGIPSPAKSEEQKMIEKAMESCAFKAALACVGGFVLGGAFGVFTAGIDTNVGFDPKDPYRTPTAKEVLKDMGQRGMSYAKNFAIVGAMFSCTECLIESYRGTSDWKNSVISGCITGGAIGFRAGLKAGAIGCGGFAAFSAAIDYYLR
UniProt Q8IWB9: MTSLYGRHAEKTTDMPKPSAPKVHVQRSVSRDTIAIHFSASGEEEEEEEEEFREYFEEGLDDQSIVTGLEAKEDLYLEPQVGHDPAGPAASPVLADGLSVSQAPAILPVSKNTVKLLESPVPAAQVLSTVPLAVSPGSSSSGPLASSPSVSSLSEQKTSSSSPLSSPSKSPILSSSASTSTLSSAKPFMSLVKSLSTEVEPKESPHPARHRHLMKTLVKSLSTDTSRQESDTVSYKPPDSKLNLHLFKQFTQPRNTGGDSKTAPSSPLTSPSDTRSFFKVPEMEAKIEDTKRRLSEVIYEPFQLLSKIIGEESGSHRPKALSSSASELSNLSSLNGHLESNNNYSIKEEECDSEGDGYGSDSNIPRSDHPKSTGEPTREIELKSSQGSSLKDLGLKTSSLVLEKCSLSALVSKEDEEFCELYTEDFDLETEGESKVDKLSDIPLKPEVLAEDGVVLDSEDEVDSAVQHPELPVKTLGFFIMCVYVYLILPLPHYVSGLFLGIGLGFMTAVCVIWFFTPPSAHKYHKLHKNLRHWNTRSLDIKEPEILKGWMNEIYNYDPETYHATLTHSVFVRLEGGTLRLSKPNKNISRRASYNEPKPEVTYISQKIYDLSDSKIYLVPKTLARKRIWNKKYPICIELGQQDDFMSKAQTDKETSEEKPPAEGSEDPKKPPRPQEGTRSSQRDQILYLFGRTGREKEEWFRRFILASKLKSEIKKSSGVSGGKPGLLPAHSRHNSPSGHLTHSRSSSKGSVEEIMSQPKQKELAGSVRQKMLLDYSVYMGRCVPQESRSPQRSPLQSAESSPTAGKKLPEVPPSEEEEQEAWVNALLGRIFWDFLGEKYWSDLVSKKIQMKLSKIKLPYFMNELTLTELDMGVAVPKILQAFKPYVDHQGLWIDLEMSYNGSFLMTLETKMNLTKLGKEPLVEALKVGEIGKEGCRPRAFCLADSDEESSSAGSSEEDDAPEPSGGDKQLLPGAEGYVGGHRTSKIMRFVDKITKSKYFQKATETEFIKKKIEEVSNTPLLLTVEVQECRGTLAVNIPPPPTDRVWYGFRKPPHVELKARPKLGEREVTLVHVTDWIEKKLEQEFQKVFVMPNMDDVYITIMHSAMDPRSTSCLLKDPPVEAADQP
UniProt Q9BVV7: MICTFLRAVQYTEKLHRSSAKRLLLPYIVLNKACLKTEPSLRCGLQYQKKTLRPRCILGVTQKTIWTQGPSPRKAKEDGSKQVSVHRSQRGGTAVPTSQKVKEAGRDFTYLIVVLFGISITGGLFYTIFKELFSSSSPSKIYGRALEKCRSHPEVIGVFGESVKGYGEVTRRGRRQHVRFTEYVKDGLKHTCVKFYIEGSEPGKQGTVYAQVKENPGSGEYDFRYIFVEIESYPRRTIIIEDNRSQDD

How the values were obtained:
Assay in all cases: log2 fold change, soluble protein after heating vs DMSO (PISA); higher = thermal stabilisation; K562 cells, 10 uM, 30 min; active = over 0.2 and 3.5 SD of the protein, either way, in both replicates (recomputed)
[1] = compound: C1=CC=C(C=C1)[C@H](COC2=CC3=C(C=C2)NC(=O)N3)NC(=O)C4=CC=CN(C4=O)CC5=CC(=C(C=C5)F)F
Summary of the method: (§1)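 Soluble protein was quantified by TMTpro 16plex LC-MS/MS after channel sums were equalised. It was obtained as the supernatant after 21,000xg for 90 min from pooled aliquots of K562 cells (2×10^6 cells/mL, 10 μM compound, 30 min) heated for 3 min across 48°C-58°C and extracted in PBS with 0.5% NP-40 at 4°C. Thermal stability values are relative to control samples and come from duplicates. They are given as log2 fold changes.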

[2] = compound: CC1=C(SC2=C1C(=N[C@H](C3=NN=C(N32)C)CC(=O)N)C4=CC=C(C=C4)Cl)C
Summary of the method: as §1

[3] = compound: CC1=C2C(=CC=C1)N=C(N(C2=O)C3=CC=CC=C3C)CN4C=NC5=C(N=CN=C54)N
Summary of the method: as §1

[4] = compound: Cc1sc2c(c1C)C(c1ccc(Cl)cc1)=N[C@@H](CC(=O)OC(C)(C)C)c1nnc(C)n1-2
Summary of the method: as §1

[5] = compound: c1ccc([C@@H]2C[C@H]2NC2CCNCC2)cc1
Summary of the method: as §1

Measured: log2 fold change

TCEA1 (UniProt P23193)
inactive: [1] -0.067 | [2] 0.002 | [3] 0.003 | [4] -0.013 | [5] -0.026

TLCD1 (UniProt Q96CP7)
inactive: [1] -0.036 | [2] 0.195 | [3] 0.024 | [4] -0.184 | [5] -0.078

TF (UniProt P02787)
inactive: [1] 0.111 | [2] -0.048 | [3] 0.063 | [4] 0.122 | [5] 0.264

Random excerpt: 2 entries already listed.
TF (UniProt P02787)
inactive: [1] 0.111 | [2] -0.048 | [3] 0.063 | [4] 0.122 | [5] 0.264

TLCD1 (UniProt Q96CP7)
inactive: [1] -0.036 | [2] 0.195 | [3] 0.024 | [4] -0.184 | [5] -0.078

Later entries

TIPIN (UniProt Q9BVW5)
inactive: [1] 0.006 | [2] -0.006 | [3] 0.075 | [4] 0.024 | [5] 0.057

THOC2 (UniProt Q8NI27)
inactive: [1] -0.049 | [2] -0.061 | [3] 0.09 | [4] 0 | [5] 0.076

TIMM13 (UniProt Q9Y5L4)
inactive: [1] -0.049 | [2] 0.049 | [3] 0.012 | [4] -0.035 | [5] 0.013

TJP2 isoform 7 (UniProt Q9UDY2)
inactive: [1] -0.03 | [2] 0.084 | [3] 0.081 | [4] 0.04 | [5] -0.044

TIMM10B (UniProt Q9Y5J6)
inactive: [1] -0.018 | [2] 0.18 | [3] 0.058 | [4] 0.066 | [5] -0.026

TIMM29 (UniProt Q9BSF4)
inactive: [1] -0.034 | [2] 0.114 | [3] -0.026 | [4] -0.006 | [5] 0.031

TFPI (UniProt P10646)
inactive: [1] 0.138 | [2] -0.164 | [3] -0.002 | [4] 0.014 | [5] 0.04

THADA (UniProt Q6YHU6)
inactive: [1] -0.06 | [2] 0.066 | [3] 0.011 | [4] -0.027 | [5] -0.032

TBC1D17 (UniProt Q9HA65)
inactive: [1] 0.08 | [2] 0.005 | [3] 0.048 | [4] -0.172 | [5] -0.01

TBC1D22B (UniProt Q9NU19)
inactive: [1] -0.075 | [2] 0.001 | [3] 0.162 | [4] -0.028 | [5] -0.017

TERF2IP (UniProt Q9NYB0)
inactive: [1] 0.003 | [2] 0.01 | [3] 0.004 | [4] -0.01 | [5] 0.066

TIMM17B (UniProt O60830)
inactive: [1] 0 | [2] 0.028 | [3] -0.102 | [4] 0.056 | [5] 0.001

TICAM2 isoform 2 (UniProt Q86XR7)
inactive: [1] -0.002 | [2] 0.048 | [3] -0.099 | [4] -0.038 | [5] -0.009

TGFBRAP1 (UniProt Q8WUH2)
inactive: [1] -0.021 | [2] 0.03 | [3] 0.075 | [4] -0.105 | [5] -0.004

TENT5C (UniProt Q5VWP2)
inactive: [1] 0.017 | [2] 0.25 | [3] 0.122 | [4] 0.116 | [5] -0.35

THOC3 (UniProt Q96J01)
inactive: [1] 0.02 | [2] 0.018 | [3] 0.021 | [4] 0.01 | [5] 0.003

TCF3 (UniProt P15923)
inactive: [1] -0.023 | [2] -0.062 | [3] 0.099 | [4] -0.004 | [5] 0.034

THUMPD2 (UniProt Q9BTF0)
inactive: [1] -0.024 | [2] -0.014 | [3] 0.047 | [4] 0.017 | [5] 0.06

TIMM22 (UniProt Q9Y584)
inactive: [1] -0.021 | [2] -0.068 | [3] -0.208 | [4] -0.093 | [5] -0.097

TEX2 isoform 2 (UniProt Q8IWB9)
inactive: [1] -0.026 | [2] 0.002 | [3] 0.055 | [4] -0.105 | [5] 0.018

TIMM21 (UniProt Q9BVV7)
inactive: [1] -0.02 | [2] 0.052 | [3] 0.024 | [4] 0.004 | [5] -0.048
